This is an account of results in PubChem BioAssay AID1508615 (Milbrandt Lab, Department of Genetics, Washington …, 2020).

Chains of the proteins cited; added tags and fusions are not shown. Lines headed by an entry give the natural chain unless they say otherwise; changes in a name come on top.
UniProt Q6SZW1: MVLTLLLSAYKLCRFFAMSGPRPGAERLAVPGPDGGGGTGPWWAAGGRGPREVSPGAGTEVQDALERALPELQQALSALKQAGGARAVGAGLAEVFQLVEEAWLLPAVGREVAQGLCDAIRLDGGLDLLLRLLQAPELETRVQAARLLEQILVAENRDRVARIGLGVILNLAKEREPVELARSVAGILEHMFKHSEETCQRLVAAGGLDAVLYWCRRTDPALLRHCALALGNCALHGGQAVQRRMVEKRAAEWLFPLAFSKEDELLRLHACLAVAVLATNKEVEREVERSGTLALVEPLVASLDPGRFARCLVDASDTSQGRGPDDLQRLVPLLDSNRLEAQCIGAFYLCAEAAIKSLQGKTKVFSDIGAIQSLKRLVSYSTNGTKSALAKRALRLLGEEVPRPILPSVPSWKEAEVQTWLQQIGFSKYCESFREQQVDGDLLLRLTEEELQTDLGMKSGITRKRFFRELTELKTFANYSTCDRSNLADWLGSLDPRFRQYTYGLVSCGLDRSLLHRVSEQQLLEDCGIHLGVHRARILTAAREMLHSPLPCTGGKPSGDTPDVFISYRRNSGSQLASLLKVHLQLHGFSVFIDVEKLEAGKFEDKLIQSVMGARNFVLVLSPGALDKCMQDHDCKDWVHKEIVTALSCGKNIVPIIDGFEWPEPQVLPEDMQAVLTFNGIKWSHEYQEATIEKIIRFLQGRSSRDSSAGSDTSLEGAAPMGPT

About 20 (1%) of roughly 1,600 compounds were called active.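 How the source made its calls: active means ratio of uncleaved NAD to its breakdown product ADP-ribose above 4, meaning the enzyme was inhibited; inactive means the rest.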 The list shows a part of the results.

In the test the target is NAD(+) hydrolase SARM1 (Homo sapiens) (UniProt Q6SZW1). Kind of test: inhibition of SAM-TIR NAD hydrolysis to ADPR – cell lysate, HPLC readout, primary screen (AID 1508615).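 Further: substrate NAD at 5 µM with 60 min at 37 °C.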 Particulars: HEK293T SAM-TIR lysate, NAD/ADPR ratio by HPLC; at 5 µM; stronger effect = higher value.
`CCN1CCCC(Sc2nc3c([nH]2)c(=S)n(C)c(=O)n3C)C1` (stereo not given): the NAD/ADPR ratio was inactive: 3.

Take `C=CCNc1ncnc2sc(SC)nc12`: the NAD/ADPR ratio is inactive: 3.

For the compound `N#CCCCCN1CCCC1`, the NAD/ADPR ratio is inactive: 3.

With `Cc1ccccc1NC(=O)Oc1cccc(OC(=O)c2ccccc2)c1`, the NAD/ADPR ratio is inactive: 3.

Turning to `CC(C)=NNc1ncnc2nc[nH]c12`, the NAD/ADPR ratio was inactive: 3.

Take `CCC/C(C)=C/c1ccc(CC)cn1`: the NAD/ADPR ratio is inactive: 3.

On to `CC1(c2ccc3ccccc3c2)CCC(=O)O1` (stereo not given), for which the NAD/ADPR ratio is inactive: 3.

Take `CCCCCc1cc(=O)[nH]c(=S)[nH]1`: the NAD/ADPR ratio was inactive: 3.

As to `COC1OC(CO)C(N=C(C)C)C1O` (stereo not given), the NAD/ADPR ratio was inactive: 3.

Take `O=c1nc2onnc2c(/C=N\O)[nH]1`: the NAD/ADPR ratio was inactive: 3.

For the compound `CC(C)(C)C(=O)/C=C/c1ccc(Oc2ccccc2)cc1`, the NAD/ADPR ratio was inactive: 3.5.

Regarding `NC(=O)Cc1ccc2c(c1)[nH]c1ccccc12`, the NAD/ADPR ratio is inactive: 3.

On to `O=c1cc2oc3cc(O)c(O)cc3c(-c3ccccc3O)c-2cc1O`, for which the NAD/ADPR ratio was inactive: 3.

As to `NC(=O)NC(=O)c1nccnc1C(=O)O`, the NAD/ADPR ratio was inactive: 3.

With `Cc1ccc(CC#N)c(-c2c(CC#N)ccc(C)c2C)c1C`, the NAD/ADPR ratio is inactive: 3.

Turning to `C=CCOc1c(CCC)cc(CCC)cc1C(N)=O`, the NAD/ADPR ratio is inactive: 3.

In the case of `CCC(CC)c1ncc[nH]1`, the NAD/ADPR ratio was inactive: 3.

Consider `Cc1cccc(N2CCN(CC(O)COc3ccccc3Cl)CC2)c1` (stereo not given), for which the NAD/ADPR ratio is inactive: 3.

Take `CC(C)Cc1nnc(N)s1`: the NAD/ADPR ratio is inactive: 3.

As for `CN(C)C=Nc1ccc(Cl)c(Cl)c1`, the NAD/ADPR ratio was inactive: 3.

Regarding `CC(=O)c1c(O)c(C)c(O)c2c1OC1=CC(=O)/C(=C(/C)N)C(=O)C12C` (stereo not given), the NAD/ADPR ratio is inactive: 3.

In the case of `CC(C1=C(CCN(C)C)Cc2ccccc21)c1ccccn1` (stereo not given), the NAD/ADPR ratio is inactive: 3.

Take `Cn1nc(NC(=O)C(F)(F)F)c2ncc(-c3ccc(Cl)cc3)nc21`: the NAD/ADPR ratio is inactive: 3.

Take `COc1cc(S(N)(=O)=O)c(OC)cc1N`: the NAD/ADPR ratio was inactive: 3.

Regarding `Cc1cc(N(C)C)ccc1N=Nc1ccc2ncccc2c1`, the NAD/ADPR ratio is inactive: 3.

For `Cc1ccc(NC(=O)Nc2ccccc2C(N)=O)cc1`, the NAD/ADPR ratio is inactive: 3.

Turning to `CC(=O)OC1CCC2(C)C(=CCC3C2CCC2(C)C3CC3OC4(CCC(C)CN4)C(C)C32)C1` (stereo not given), the NAD/ADPR ratio was inactive: 3.

With `O=C1NCCc2c1[nH]c1ccccc21`, the NAD/ADPR ratio is inactive: 3.

As to `C=C(C)c1nc(Oc2ccccc2)nc(Oc2ccccc2)n1`, the NAD/ADPR ratio is inactive: 3.

For `CC1(C)CC[C@]2(C(=O)n3ccnc3)CC[C@]3(C)[C@H](C(=O)C=C4[C@@]5(C)C=C(C#N)C(=O)C(C)(C)[C@@H]5CC[C@]43C)[C@@H]2C1`, the NAD/ADPR ratio is active: 6.5.

For the compound `N#Cc1cnn2ccn(C3OC(CO)C(O)C3O)c12` (stereo not given), the NAD/ADPR ratio was inactive: 3.

Turning to `CN1C2CCC1CC(OC(c1ccccc1)c1ccccc1)C2` (stereo not given), the NAD/ADPR ratio is inactive: 3.

Take `O=c1cc/c(=N\Nc2ccccc2)c(=O)/c1=N/Nc1ccccc1`: the NAD/ADPR ratio was inactive: 3.

`O=C(O)CCC(=O)OCCN(Cc1ccc(Oc2ccc([N+](=O)[O-])cc2)cc1)C(=O)C(Cl)Cl`: the NAD/ADPR ratio is inactive: 3.

On to `N#Cc1[nH]nc2nc[nH]c(=O)c12`, for which the NAD/ADPR ratio was inactive: 3.

For `c1ccc2c(c1)Oc1cccc3cccc-2c13`, the NAD/ADPR ratio was inactive: 3.

`CN(CC(=O)O)Cc1oc(CO)cc(=O)c1O`: the NAD/ADPR ratio is inactive: 3.

For `CCCCn1ccnc1C`, the NAD/ADPR ratio was inactive: 3.

Take `Cc1cc(-c2ccc(N3C(=O)CC4(CCCC4)C3=O)c(C)c2)ccc1N1C(=O)CC2(CCCC2)C1=O`: the NAD/ADPR ratio was inactive: 3.

With `O=[N+]([O-])c1cccnc1Oc1cccnc1`, the NAD/ADPR ratio was inactive: 3.

Regarding `CCOc1ccc(Nc2c3ccccc3nc3ccccc23)cc1`, the NAD/ADPR ratio was inactive: 3.

Turning to `COc1ccc(/C(C#N)=C/c2ccccn2)cc1`, the NAD/ADPR ratio is inactive: 3.

Consider `Cc1cc2nc(CS)[nH]c2cc1C`, for which the NAD/ADPR ratio is inactive: 3.

Consider `CCCCN1C(=O)CC2CCOC21C` (stereo not given), for which the NAD/ADPR ratio is inactive: 3.

`COc1ccc(C2C3=C(COC3=O)Oc3cc4c(cc32)OCO4)cc1OC` (stereo not given): the NAD/ADPR ratio was inactive: 3.

On to `c1ccc(Sc2ncccn2)nc1`, for which the NAD/ADPR ratio was inactive: 3.

Consider `Cc1ccc(Nc2c(O)nc[nH]c2=O)cc1C`, for which the NAD/ADPR ratio is inactive: 3.

`Nc1ccc(S(=O)(=O)NCC2CCCCO2)cc1` (stereo not given): the NAD/ADPR ratio is inactive: 3.

For the compound `COc1ccc2c(c1)c1ccc3c(c1n2C)C(=O)C=CC3=O`, the NAD/ADPR ratio is active: 7.6.

Turning to `CCOC(=O)Nc1ccc(C(=O)/C=C/c2ccccc2)cc1`, the NAD/ADPR ratio was inactive: 3.

For the compound `O=C(CCl)NC1(C(=O)O)CCCC1`, the NAD/ADPR ratio is inactive: 3.

With `C#Cc1cccc(NC(=O)c2ccc(Cl)cc2Cl)c1`, the NAD/ADPR ratio is inactive: 3.

As for `O=[N+]([O-])c1cc(-c2cccnc2)n[nH]1`, the NAD/ADPR ratio was inactive: 3.

Regarding `O=C(C(=O)c1cccnc1)c1cccnc1`, the NAD/ADPR ratio is inactive: 3.

As for `OCc1nnn(-c2ccccc2)c1CO`, the NAD/ADPR ratio was inactive: 3.

For `NNC(=O)c1nnsc1-c1csnn1`, the NAD/ADPR ratio is inactive: 3.

On to `CCN1CCCCC(=N/O)/C(=N/O)CCCC1`, for which the NAD/ADPR ratio is inactive: 3.

For the compound `Cc1ccc2c(c1)C(=C(C#N)C#N)CCN2`, the NAD/ADPR ratio is inactive: 3.

Consider `Clc1ncnc2[nH]ccc12`, for which the NAD/ADPR ratio is inactive: 3.

Take `CCCN(CCC)c1ccc(/C=C/c2ccc3cc(OCC)ccc3n2)cc1`: the NAD/ADPR ratio was inactive: 3.

With `O=C(O)C(C=C(Cl)Cl)N1CCOCC1` (stereo not given), the NAD/ADPR ratio was inactive: 3.

Turning to `O=C(CSc1nc2ccc([N+](=O)[O-])cc2s1)c1ccc2ccccc2c1`, the NAD/ADPR ratio is inactive: 3.

Turning to `Nc1nc2ccc([N+](=O)[O-])cc2[nH]1`, the NAD/ADPR ratio was inactive: 3.

Consider `CC(=O)NC1(C(=O)O)CCCC1`, for which the NAD/ADPR ratio was inactive: 3.

Turning to `Nc1ccc(C(=O)Oc2ccc([N+](=O)[O-])cc2)cc1`, the NAD/ADPR ratio is inactive: 3.

As for `c1cncc(-c2nc3ccccc3s2)c1`, the NAD/ADPR ratio is inactive: 3.

For the compound `N#Cc1ccc(NC2c3ccccc3CC2O)cc1` (stereo not given), the NAD/ADPR ratio was inactive: 3.

`O=c1[nH]c(SCc2ccccc2[N+](=O)[O-])nc2nc[nH]c12`: the NAD/ADPR ratio is inactive: 3.

Take `Cc1ccc(/C=C2\CCOC2=O)cc1`: the NAD/ADPR ratio is inactive: 3.

Regarding `Nc1nc(=S)ss1`, the NAD/ADPR ratio was inactive: 3.

Turning to `CCOC(=O)c1[nH]c(C(=O)O)c(OC(=O)CC)c1C`, the NAD/ADPR ratio is inactive: 3.

Consider `ClC(Cl)(Cl)C1=NCc2nnn(Cc3ccccc3)c2N1`, for which the NAD/ADPR ratio is inactive: 3.

On to `COc1ccccc1NC(=O)c1cc2ccccc2cc1O`, for which the NAD/ADPR ratio is inactive: 3.

`Nc1n[nH]c(=S)n1-c1ccc(Cl)cc1`: the NAD/ADPR ratio was inactive: 3.

As for `c1ccc(CSc2nc3ncncc3[nH]2)cc1`, the NAD/ADPR ratio is inactive: 3.

As for `C#CCSc1n[nH]c(-c2ccco2)n1`, the NAD/ADPR ratio is inactive: 3.

Turning to `CCCCCc1cccnc1`, the NAD/ADPR ratio is inactive: 3.

In the case of `O=Cc1c[nH]c2ncccc12`, the NAD/ADPR ratio was inactive: 3.

As to `C1C2CC3C1C3/C2=N\N=C1/C2CC3C(C2)C13`, the NAD/ADPR ratio was inactive: 3.

As for `Cc1cc2cc3c(=O)[nH]c(=O)cc-3n(CC(O)C(O)C(O)CO)c2cc1C` (stereo not given), the NAD/ADPR ratio is inactive: 3.3.
